These results are taken from publication doi:10.1101/2025.01.05.631347.

By UniProt entry, the sequences of proteins in these tests, tags left out.
UniProt P22561: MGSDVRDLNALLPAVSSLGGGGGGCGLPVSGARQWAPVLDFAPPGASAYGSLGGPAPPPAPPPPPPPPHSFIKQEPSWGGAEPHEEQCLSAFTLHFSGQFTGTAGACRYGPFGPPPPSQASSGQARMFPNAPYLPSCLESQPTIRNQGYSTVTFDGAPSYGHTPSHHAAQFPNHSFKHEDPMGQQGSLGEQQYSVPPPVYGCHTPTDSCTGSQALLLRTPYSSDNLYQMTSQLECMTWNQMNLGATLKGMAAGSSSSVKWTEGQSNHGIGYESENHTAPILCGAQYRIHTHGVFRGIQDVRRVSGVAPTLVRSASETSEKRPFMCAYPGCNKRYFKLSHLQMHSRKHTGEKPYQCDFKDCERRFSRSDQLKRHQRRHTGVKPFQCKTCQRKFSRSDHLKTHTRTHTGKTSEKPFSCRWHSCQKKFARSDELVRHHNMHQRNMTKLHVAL
UniProt P26369: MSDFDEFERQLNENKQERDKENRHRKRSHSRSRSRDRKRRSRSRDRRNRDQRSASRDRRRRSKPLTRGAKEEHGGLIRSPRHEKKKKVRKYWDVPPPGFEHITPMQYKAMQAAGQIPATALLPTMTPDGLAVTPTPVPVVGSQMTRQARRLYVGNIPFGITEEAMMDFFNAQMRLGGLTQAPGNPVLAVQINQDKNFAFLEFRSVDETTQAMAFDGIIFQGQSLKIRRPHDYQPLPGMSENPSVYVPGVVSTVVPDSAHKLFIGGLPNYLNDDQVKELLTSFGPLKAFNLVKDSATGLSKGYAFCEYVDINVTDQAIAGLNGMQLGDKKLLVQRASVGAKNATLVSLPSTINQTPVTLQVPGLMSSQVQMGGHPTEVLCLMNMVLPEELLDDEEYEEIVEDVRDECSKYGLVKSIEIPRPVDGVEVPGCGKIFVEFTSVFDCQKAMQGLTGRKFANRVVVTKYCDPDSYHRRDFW
UniProt Q8CJG0: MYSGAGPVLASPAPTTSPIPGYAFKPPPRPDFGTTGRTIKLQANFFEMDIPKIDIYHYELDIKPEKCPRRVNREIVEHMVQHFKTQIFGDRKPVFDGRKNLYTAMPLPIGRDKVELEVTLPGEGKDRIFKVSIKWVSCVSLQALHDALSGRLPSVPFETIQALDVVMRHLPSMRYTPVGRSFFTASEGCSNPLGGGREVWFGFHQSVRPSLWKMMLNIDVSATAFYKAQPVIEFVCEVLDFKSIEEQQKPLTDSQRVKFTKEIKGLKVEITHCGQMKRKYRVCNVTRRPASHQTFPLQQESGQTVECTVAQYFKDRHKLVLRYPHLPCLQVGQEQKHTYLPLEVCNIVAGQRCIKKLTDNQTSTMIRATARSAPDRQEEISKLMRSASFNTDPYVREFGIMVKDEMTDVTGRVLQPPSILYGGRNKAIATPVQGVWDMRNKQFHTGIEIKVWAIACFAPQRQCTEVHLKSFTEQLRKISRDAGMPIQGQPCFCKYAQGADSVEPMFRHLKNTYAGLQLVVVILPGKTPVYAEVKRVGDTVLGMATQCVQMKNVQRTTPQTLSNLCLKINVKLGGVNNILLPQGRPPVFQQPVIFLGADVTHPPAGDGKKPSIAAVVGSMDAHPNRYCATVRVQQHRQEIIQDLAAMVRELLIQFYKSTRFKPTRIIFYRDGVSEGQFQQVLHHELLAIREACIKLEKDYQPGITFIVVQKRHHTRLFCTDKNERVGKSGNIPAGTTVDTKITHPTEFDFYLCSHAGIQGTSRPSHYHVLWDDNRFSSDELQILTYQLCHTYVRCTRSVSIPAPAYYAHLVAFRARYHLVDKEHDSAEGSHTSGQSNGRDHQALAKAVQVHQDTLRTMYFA
UniProt O70133: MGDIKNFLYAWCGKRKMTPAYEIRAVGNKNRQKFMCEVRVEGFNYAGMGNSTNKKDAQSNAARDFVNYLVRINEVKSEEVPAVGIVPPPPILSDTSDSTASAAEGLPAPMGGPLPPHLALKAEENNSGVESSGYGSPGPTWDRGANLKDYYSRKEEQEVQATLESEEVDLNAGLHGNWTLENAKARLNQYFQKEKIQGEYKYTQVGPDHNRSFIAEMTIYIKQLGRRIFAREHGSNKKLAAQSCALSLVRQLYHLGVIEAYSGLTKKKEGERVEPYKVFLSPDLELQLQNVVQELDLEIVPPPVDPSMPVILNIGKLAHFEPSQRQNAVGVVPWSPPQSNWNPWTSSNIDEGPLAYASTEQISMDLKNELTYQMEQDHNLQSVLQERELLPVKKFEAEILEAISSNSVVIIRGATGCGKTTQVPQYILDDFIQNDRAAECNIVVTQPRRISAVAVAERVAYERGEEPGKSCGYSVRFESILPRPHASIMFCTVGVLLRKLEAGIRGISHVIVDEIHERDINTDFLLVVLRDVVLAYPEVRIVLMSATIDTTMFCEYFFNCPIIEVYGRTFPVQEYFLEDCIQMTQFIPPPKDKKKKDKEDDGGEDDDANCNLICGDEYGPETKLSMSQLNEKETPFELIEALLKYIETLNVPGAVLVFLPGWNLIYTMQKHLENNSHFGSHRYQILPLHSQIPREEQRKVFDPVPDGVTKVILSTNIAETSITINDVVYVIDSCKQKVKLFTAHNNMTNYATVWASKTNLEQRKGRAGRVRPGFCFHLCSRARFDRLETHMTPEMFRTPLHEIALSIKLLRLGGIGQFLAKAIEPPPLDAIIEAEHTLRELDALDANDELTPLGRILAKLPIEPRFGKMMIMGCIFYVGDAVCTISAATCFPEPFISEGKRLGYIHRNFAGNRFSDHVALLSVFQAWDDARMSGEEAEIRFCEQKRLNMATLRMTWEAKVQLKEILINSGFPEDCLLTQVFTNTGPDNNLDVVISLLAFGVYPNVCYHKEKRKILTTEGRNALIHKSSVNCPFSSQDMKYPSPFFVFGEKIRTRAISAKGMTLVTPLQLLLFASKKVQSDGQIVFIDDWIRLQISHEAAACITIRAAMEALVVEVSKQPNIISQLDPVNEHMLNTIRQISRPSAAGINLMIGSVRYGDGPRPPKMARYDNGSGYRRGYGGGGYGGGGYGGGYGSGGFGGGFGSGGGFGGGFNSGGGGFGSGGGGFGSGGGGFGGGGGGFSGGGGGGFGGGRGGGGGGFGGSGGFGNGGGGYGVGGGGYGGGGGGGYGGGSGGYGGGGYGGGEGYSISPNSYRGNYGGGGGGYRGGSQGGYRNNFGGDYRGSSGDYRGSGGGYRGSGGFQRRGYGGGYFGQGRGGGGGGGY

B1: NONO (protein, UniProt Q99K48 1-473)
chain: MQSNKAFNLEKQNHTPRKHHQHHHQQHHQQQQQQQQQQPPPPIPANGQQASSQNEGLTIDLKNFRKPGEKTFTQRSRLFVGNLPPDITEEEMRKLFEKYGKAGEVFIHKDKGFGFIRLETRTLAEIAKVELDNMPLRGKQLRVRFACHSASLTVRNLPQYVSNELLEEAFSVFGQVERAVVIVDDRGRPSGKGIVEFSGKPAARKALDRCSEGSFLLTTFPRPVTVEPMDQLDDEEGLPEKLVIKNQQFHKEREQPPRFAQPGSFEYEYAMRWKALIEMEKQQQDQVDRNIKEAREKLEMEMEAARHEHQVMLMRQDLMRRQEELRRMEELHNQEVQKRKQLELRQEEERRRREEEMRRQQEEMMRRQQEGFKGTFPDAREQEIRMGQMAMGGAMGINNRGAMPPAPVPPGTPAPPGPATMMPDGTLGLTPPTTERFGQAATMEGIGAIGGTPPAFNRPAPGAEFAPNKRRRY

No constants are given. Whether binding was seen depends on the method and setting. In cells and extracts the contact can be indirect. A yes stands for co-enrichment or nearness to the bait. Other partners may have been found.

This test concerns the target Wilms Tumour 1 (WT1) protein (mouse (endogenous in M15)) (UniProt P22561). Nature of the test: affinity purification with mass spectrometry.
Regarding U2AF2 (from UniProt P26369 1-475), the binding result was “binds”.
In the case of AGO2 (from UniProt Q8CJG0 1-860) it was “binds”; in that of DHX9 (from UniProt O70133 1-1380), “binds”; in that of B1, “binds”.
